# Literature values in patent publication US20160199396A1 (TEVA Pharmaceutical Industries Ltd., priority 2013, published 2016).
# The name of at least one read-out is uncertain.
# Settings: background statement, follows from BCS class IV
smiles,measurement,value
"CC(C)c1nc(CN(C)C(=O)N[C@H](C(=O)N[C@@H](Cc2ccccc2)C[C@H](O)[C@H](Cc2ccccc2)NC(=O)OCc2cncs2)C(C)C)cs1 [Ritonavir, 1,3-thiazol-5-ylmethyl N-[(2S,3S,5S)-3-hydroxy-5-[(2S)-3-methyl-2-{[methyl({[2-(propan-2-yl)-1,3-thiazol-4-yl]methyl})carbamoyl]amino}butanamido]-1,6-diphenylhexan-2-yl]carbamate]",permeability,very low
